Molecular target: DCC netrin 1 receptor (DCC) (human, UniProt P43146 26-1447)
Test: cell-based or functional assay

Amino acid sequences for entries named in this document (tags omitted). Chains listed by the source or under a name are the forms on record and can include a tag or linker. Residues count along the entry.
UniProt P43146, 26-1447, form in doubt: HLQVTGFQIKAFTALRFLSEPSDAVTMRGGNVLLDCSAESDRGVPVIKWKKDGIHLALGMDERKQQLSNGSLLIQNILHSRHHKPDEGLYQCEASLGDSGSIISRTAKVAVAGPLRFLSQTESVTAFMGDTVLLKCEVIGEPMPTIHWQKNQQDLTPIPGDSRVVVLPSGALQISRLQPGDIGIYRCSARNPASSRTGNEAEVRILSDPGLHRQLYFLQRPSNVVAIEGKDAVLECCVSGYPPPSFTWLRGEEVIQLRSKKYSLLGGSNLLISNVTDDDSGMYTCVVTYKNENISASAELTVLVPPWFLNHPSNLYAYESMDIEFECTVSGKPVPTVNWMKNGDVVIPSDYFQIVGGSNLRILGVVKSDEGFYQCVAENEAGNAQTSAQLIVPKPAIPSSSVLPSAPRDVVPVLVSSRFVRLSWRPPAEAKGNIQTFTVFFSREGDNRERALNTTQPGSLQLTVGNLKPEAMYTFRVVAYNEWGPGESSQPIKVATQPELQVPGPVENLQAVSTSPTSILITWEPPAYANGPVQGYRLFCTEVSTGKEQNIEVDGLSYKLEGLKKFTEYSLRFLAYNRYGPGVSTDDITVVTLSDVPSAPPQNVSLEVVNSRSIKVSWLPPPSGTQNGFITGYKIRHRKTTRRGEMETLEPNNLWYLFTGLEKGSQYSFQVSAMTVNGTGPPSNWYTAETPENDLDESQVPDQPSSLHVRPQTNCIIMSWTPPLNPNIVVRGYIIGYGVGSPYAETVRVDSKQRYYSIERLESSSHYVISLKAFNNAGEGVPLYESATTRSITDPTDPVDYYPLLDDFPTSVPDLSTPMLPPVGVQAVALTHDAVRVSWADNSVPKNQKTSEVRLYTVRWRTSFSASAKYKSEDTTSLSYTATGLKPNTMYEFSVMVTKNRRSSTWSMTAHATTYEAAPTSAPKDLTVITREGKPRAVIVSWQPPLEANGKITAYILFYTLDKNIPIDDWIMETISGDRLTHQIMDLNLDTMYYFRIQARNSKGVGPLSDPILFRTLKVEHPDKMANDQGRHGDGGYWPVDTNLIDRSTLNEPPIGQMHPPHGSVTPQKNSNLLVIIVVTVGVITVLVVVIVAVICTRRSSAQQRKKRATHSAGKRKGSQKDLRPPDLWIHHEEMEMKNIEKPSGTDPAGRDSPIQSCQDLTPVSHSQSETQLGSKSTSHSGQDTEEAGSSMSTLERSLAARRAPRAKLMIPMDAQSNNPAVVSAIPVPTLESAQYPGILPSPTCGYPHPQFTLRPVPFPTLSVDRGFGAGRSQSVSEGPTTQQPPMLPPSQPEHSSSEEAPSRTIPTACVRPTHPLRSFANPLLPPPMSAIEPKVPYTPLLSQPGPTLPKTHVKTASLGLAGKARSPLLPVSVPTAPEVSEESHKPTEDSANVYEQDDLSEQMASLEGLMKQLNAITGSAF

B1: TnMUC1 CAR MB053 (tagless, D16 lentiviral vector) on human T cells (other)
chain: DIVMTQSPDSLAVSLGERATINCKSSQSLLNSGDQKNYLTWYQQKPGQPPKLLIFWASTRESGVPDRFSGSGSGTDFTLTISSLQAEDVAVYYCQNDYSYPLTFGQGTKLEIKGGGGSGGGGSGGGGSGGGGSQVQLVQSGAEVKKPGSSVKVSCKASGYTFTDHAIHWVRQAPGQGLEWMGHFSPGNTDIKYNDKFKGRVTITADKSTSTAYMELSSLRSEDTAVYYCKTSTFFFDYWGQGTTVTVSSRTFVPVFLPAKPTTTPAPRPPTPAPTIASQPLSLRPEACRPAAGGAVHTRGLDFACDIYIWAPLAGTCGVLLLSLVITLYCNHRNKRGRKKLLYIFKQPFMRPVQTTQEEDGCSCRFPEEEEGGCELRVKFSRSADAPAYQQGQNQLYNELNLGRREEYDVLDKRRGRDPEMGGKPRRKNPQEGLYNELQKDKMAEAYSEIGMKGERRRGKGHDGLYQGLSTATKDTYDALHMQALPPR
With B1 the “IFN-γ production (MSD), 48 h co-culture with DCC expressing HEK cells, relative to co-culture with wild type Jurkat cells” value was roughly 2 times and the “IFN-γ production (MSD), co-culture with DCC transfected HEK cells, fold increase above untransduced T cells” value was 3240 fold.
